Measurements reported in PubChem BioAssay AID504793 (Drosophila RNAi Screening Center, 2011)
The screen tested about 23,000 reagents; below is an unselected part of those with a known target gene and a result. In the full data, 62 (0.27%) got an active call. 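Calls come from follow-up tests whose scores are not deposited, so confirmed genes may have low counts here; counts are not normalised per plate.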 Raw values vary from plate to plate and are shown uncorrected.

Aim: 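Whole-genome screen for parts of the DNA damage checkpoint at G2/M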 (primary screen)
System: Drosophila S2R+ cells
Reagents: long dsRNA against Drosophila genes, about 0.25 µg dsRNA per well
Time to read-out: 4 days of dsRNA, then 4 hours of drug before read-out
Challenge: doxorubicin 0.5 µM for 4 hours to cause double-strand breaks, in cells also given a low, harmless dose of dsRNA against nbs to sensitise the assay
Measurement: 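Per-well count of mitotic cells stained for phospho-histone H3 after doxorubicin exposure, used as mitotic index; counts are raw and not normalised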
Scale: mitotic cells: higher = more cells in mitosis, weaker G2 arrest
Hit rule: 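a call needs confirmation in secondary tests, with other dsRNAs and a check of mitotic timing without damage, not just a high primary count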
Meaning of the calls: active = confirmed in follow-up tests; inactive = not confirmed

gene	DRSC id	mitotic cells, replicate 1	outcome
CG5181	DRSC02825	5	inactive
Lrrk	DRSC15816	10	inactive
Lrrk	DRSC21971	13	inactive
Lrrk	DRSC26140	5	inactive
CG5498	DRSC11608	9	inactive
Fuca	DRSC10591	5	inactive
PGRP-LC	DRSC08980	8	inactive
PGRP-LC	DRSC10416	1	inactive
PGRP-LC	DRSC10417	5	inactive
PGRP-LC	DRSC28556	9	inactive
nAChRalpha3	DRSC18800	18	inactive
nAChRalpha3	DRSC25751	8	inactive
GstZ1	DRSC16478	9	inactive
CG2616	DRSC15440	2	inactive
CG2616	DRSC24316	1	inactive
fwd	DRSC08580	4	inactive
fwd	DRSC26680	8	inactive
CG6154	DRSC15977	9	inactive
CG6154	DRSC28363	4	inactive
e	DRSC16936	15	inactive
e	DRSC24320	5	inactive
Prosalpha5	DRSC07514	97	inactive
dah	DRSC20320	1	inactive
CG31075	DRSC16016	12	inactive
CG15071	DRSC06504	5	inactive
CG15071	DRSC28329	3	inactive
CG10559	DRSC14255	21	inactive
CG10559	DRSC29876	4	inactive
CG11597	DRSC09847	6	inactive
CG43317	DRSC15000	5	inactive
CG14722	DRSC14944	4	inactive
CG14722	DRSC24593	6	inactive
tra2	DRSC07708	8	inactive
tra2	DRSC29704	3	inactive
sima	DRSC23203	6	inactive
sima	DRSC28794	2	inactive
CG10654	DRSC09767	1	inactive
CG32821 (retired record)	DRSC22544	6	inactive
Ret	DRSC03409	5	inactive
Ret	DRSC03410	5	inactive
Sema2b	DRSC05609	15	inactive
Sema2b	DRSC06867	3	inactive
Sema2b	DRSC24672	8	inactive
ClC-b	DRSC07220	9	inactive
CG6000	DRSC15938	9	inactive
